Data reported in publication PMC10010612.
These are yes or no findings as the source states them, for the method shown. For part of these data: In cells and extracts the contact can be indirect. Some results given as binding are weak or reduced against the parent protein; the word gives no strength.

T1: Tsw coiled-coil (CC) domain (1-169 aa) (Capsicum chinense)
T1 sequence: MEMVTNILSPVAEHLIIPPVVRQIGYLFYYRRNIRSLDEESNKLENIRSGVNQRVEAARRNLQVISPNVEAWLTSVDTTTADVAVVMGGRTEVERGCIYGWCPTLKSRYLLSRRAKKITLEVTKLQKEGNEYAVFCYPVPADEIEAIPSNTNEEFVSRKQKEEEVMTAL


Legend:
[1] = biological target: T1, Tsw coiled-coil (CC) domain (1-169 aa) (Capsicum chinense); assay: co-IP; co-IP of the NBS and CC domains of Tsw (Supplementary Fig. S3B); constructs and bait of this experiment not shown
[2] = biological target: T1, Tsw coiled-coil (CC) domain (1-169 aa) (Capsicum chinense); assay: co-IP; CC-GFP and CC-Myc co-expressed in N. benthamiana leaves by agroinfiltration, 3 d; extraction buffer 25 mM Tris-HCl pH 7.5, 150 mM NaCl, 1 mM EDTA, 0.5% NP-40, 10% glycerol, 10 mM DTT; GFP-trap beads 3 h at 4 °C; blot with anti-Myc and anti-GFP
[3] = biological target: T1, Tsw coiled-coil (CC) domain (1-169 aa) (Capsicum chinense); assay: native gel or EMSA; BN-PAGE (NativePAGE Novex Bis-Tris); CC-GFP transiently expressed in N. benthamiana leaves, protein extract 36 h post inoculation

Row | binding [1] | binding [2] | binding [3] | Binder
1 | binds |  |  | Tsw nucleotide-binding site (NBS) domain (170-491 aa) (domain or fragment, UniProt A0A1C9TCM9 170-491) KDEEITIVGICGMGGVGKTSLAEKVRARAKQERLFNDVVMVTVSQQQDLKRIQGEIAGEVGLTSLQGDNLLSRGDQLRARLMQEGSRVLVILDDVWEALDDLEKLGIPTGSNHNYQCKVALTTRRQDVCDAMKAQKTVDVVILSDEEAWVLFRQKAGYSADDPSLSEVAKEVAKECKGLPLAIVIVAGALKTKTKPSWDDALVELRKASPKNIPRVLTKVYQPLKTSYDHLESDEARYVFLLCSLFEEDSDIWTEELLKYGVGLGIFSELENLECARNRVCNLLETLKNCFLLSQGKDKNYVKMHDVVRDVAIYIASEGEHK
2 |  | binds | binds | Tsw coiled-coil (CC) domain (1-169 aa) (domain or fragment, UniProt A0A1C9TCM9 1-169) MEMVTNILSPVAEHLIIPPVVRQIGYLFYYRRNIRSLDEESNKLENIRSGVNQRVEAARRNLQVISPNVEAWLTSVDTTTADVAVVMGGRTEVERGCIYGWCPTLKSRYLLSRRAKKITLEVTKLQKEGNEYAVFCYPVPADEIEAIPSNTNEEFVSRKQKEEEVMTAL
